Laboratory results as given in paper PMC12145522.
Results are given in words; binding and its absence hold for the method and conditions named. A result given as binding can be weak or reduced; the word gives no strength. Sequences can lack the tags named with a protein.

How the values were obtained:
Test in all cases: two-hybrid; BacterioMatch II bacterial two-hybrid; TrpR2 in pBT, HrpR, HrpS or HrpL in pTRG; E. coli XL1-Blue; spotted on selective M9 medium with 5 mM 3-AT, 28℃, 1-2 days
[1] = target: TrpR2 D18A (Pseudomonas syringae pv. actinidiae M228)
[2] = target: TrpR2 G57A (Pseudomonas syringae pv. actinidiae M228)
[3] = target: TrpR2 L72A (Pseudomonas syringae pv. actinidiae M228)
[4] = target: TrpR2 G76A (Pseudomonas syringae pv. actinidiae M228)
[5] = target: TrpR2 P37A (Pseudomonas syringae pv. actinidiae M228)
[6] = target: TrpR2 (temperature-responsive pathogenic regulator 2), bacterial two-hybrid fusion in pBT (Pseudomonas syringae pv. actinidiae M228)
[7] = target: TrpR2 G118A (Pseudomonas syringae pv. actinidiae M228)
[8] = target: TrpR2 F98A (Pseudomonas syringae pv. actinidiae M228)
[9] = target: TrpR2 L120A (Pseudomonas syringae pv. actinidiae M228)
[10] = target: TrpR2 L104A (Pseudomonas syringae pv. actinidiae M228)

Measured: binding

B1: HrpL, bacterial two-hybrid fusion in pTRG (protein, UniProt P37929 1-184)
chain: MLPNLVILDVTEPRKPSSSAGIRQLTADQIQMLRAFIQKRVKNADDVDDILQCVFLEALRNEHKFQHASKPQTWLCGIALNLIRNHFRKMYRQPYQESWEDDVHTDLEWHGDITHQVDGHRQLARVIEAIDCLPTNMQKVLEVSLEMDGNYQETANTLGVPIGTVRSRLSRARVQLKQQIDPFA
binds: all assays above

B2: HrpR, bacterial two-hybrid fusion in pTRG (protein, UniProt P37930 1-314)
chain: MSTDIDNDVRTRWNVTALSAGHQIAMHSALLDMDLLLCGETGTGKDTLASRIHELSSRTGPFVGMNCAAIPESLAESQLFGVVNGAFTGVCRAREGYIEPSNGGTLYLDEIDTMPLSLQAKLLRVLESRGVERLGSTDFIPLDLQVIASASAPLDELVEQGLFRRDLFFRLNVLTLQLPALRKRREQILPLFDQFTQDIAAECGRSAPTLDNGRVQILLSHDWPGNVRELKSAANAICPRIAVAGRRAVEARDPVTGLRMQMRVIEKMLIQDALKRHRHNFDAVLEELELPRRTLYHRMKELGVASHIDLAAES
no binding: [6]

B3: HrpS, bacterial two-hybrid fusion in pTRG (protein, UniProt P37931 1-302)
chain: MNLDDEFDDDLDAERVPNLGIVAESISQLGIDVLLSGETGTGKDTTARRIHNMSGRQGRFVPMNCAAIPESLAESELFGVVSGAYTGADRSRMGYIEAAQGGTLYLDEIDSMPLALQAKLLRVLETRALERLGSTSTIHLDICVIASAQASLDDAVEEGKFRRDLYFRLNVLTLKLPPLRDQPERILPLFTRFVAASAKELNVAIPDVCPLLQQVLTGHRWPGNIRELKAAAKRHVLGFPLLGADSQTEEHMACGLKFQLRAIEKALIQQALKRHRNCIDAASLELDIPRRTLYRRIKELSI
no binding: [6]
